Experimental data published in PubChem BioAssay AID743255 (National Center for Advancing Translational Sciences (NCATS), 2014).
In all, about 390,000 compounds went through this assay and about 910 (0.23%) were called active. Inconclusive means that the source gave no clear call. Such entries were picked first, then a sample of the others. Calls come from the whole dose curve; as a rule, active = well fitted inhibition curve with a large enough effect; inconclusive = small, poorly fitted or top-dose-only effect; inactive = no such curve, though single readings can be large or run the other way. A potency beside an inconclusive call is a rough fit, not a confirmed value.

Chains of the proteins cited; added tags and fusions are not shown. Lines headed by an entry give the natural chain unless they say otherwise; changes in a name come on top.
UniProt O94782: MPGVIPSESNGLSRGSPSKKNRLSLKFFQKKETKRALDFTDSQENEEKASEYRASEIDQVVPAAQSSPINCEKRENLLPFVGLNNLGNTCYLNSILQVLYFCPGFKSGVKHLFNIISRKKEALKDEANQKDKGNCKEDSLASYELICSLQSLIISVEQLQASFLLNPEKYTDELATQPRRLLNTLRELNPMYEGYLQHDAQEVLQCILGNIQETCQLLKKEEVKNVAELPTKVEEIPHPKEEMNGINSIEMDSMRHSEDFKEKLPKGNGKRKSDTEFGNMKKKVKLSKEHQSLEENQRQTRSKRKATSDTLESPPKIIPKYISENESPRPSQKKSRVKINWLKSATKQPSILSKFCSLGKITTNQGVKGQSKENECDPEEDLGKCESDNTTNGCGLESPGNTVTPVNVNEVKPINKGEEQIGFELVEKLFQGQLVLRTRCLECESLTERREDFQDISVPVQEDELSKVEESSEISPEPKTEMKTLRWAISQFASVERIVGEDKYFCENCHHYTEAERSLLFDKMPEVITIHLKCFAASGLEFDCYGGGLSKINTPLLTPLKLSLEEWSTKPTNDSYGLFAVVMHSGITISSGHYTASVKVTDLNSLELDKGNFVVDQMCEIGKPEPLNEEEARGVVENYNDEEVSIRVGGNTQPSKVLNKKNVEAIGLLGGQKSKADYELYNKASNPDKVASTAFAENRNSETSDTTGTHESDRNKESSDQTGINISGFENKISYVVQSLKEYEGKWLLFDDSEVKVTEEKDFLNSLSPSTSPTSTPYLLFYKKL

target: Ubiquitin carboxyl-terminal hydrolase 1 (Homo sapiens) (UniProt O94782); assay: Inhibitors of USP1/UAF1: Primary Screen; details: recombinant USP1/UAF1, Ub-Rhodamine cleavage fluorescence; activity change, negative = inhibition: at 57.1 µM (top of the series); note: nearly all actives have a fitted effect of over 60% in size
Summary of the method: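 Step one: compound is pinned into 1nM USP1/UAF1 in HEPES pH 7.8 buffer with TCEP. Step two: 15 min room-temperature incubation. Step three: Ub-Rho (150nM final) starts cleavage, tracked by fluorescence over six one-minute reads.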
% is set by controls: 0 for no effect and ±100 for the full control effect; potency is the fitted concentration of half-maximal effect.

Row | SMILES | Potency | activity change, negative = inhibition
1 | Cc1cccc(N(C)C(=O)CCNS(=O)(=O)c2ccc3c(c2)CCN3C(=O)C2CC2)c1 | inconclusive: 22.4 µM [inhibitor, partial curve] | 
2 | COc1ccc2[nH]c(C)c(CCN(Cc3cccs3)C(=S)Nc3ccccc3OC)c2c1 | inconclusive: 39.8 µM [inhibitor, partial curve, poor fit] | 
3 | O=C(Nc1cccc2c1CCCC2)c1ccc(Br)o1 | inconclusive: 44.7 µM [inhibitor, partial curve] | 
4 | Cc1cc(C)cc(OCc2ccc(C(=O)Nc3ccccc3F)o2)c1 | inconclusive: 4.47 µM [inhibitor, partial curve] | 
5 | CCc1cccc(NC(=O)CSc2ncccc2C(=O)Oc2ccccc2Cl)c1 | inconclusive: 0.708 µM [inhibitor, full curve, poor fit] | 
6 | CC(=O)c1ccc(OCCCN2CCCCC2)cc1 |  | inactive: -15.2%
7 | CCOc1ccc(NC(=O)CCS(=O)(=O)c2cccc3nonc23)cc1 | inconclusive: 17.8 µM [inhibitor, partial curve] | 
8 | CCOC(=O)c1c(NC(=O)c2cc(C)on2)sc(C)c1C |  | inactive: 13%
9 | Cc1ccccc1N1CC(C(=O)N2CC(C)CC(C)C2)CC1=O (centres undefined) | inconclusive: 10 µM [inhibitor, partial curve] | 
10 | Cc1ccc2c(c1)N(C(=O)N1CCC(C(=O)NC3CCCCCC3)CC1)CC(C)O2 (centres undefined) |  | inactive: -4.51%
11 | CC(=O)c1cccc(NC(=O)c2ccc(-n3c(C)nnc3C)cc2)c1 | inconclusive: 0.631 µM [inhibitor, full curve, poor fit] | 
12 | CCOc1ccccc1CNC(=O)c1ccc2c(c1)sc1nc(-c3cccc(OC)c3)cn12 |  | inactive: 6.57%
13 | C[C@@H]1CN([C@@H](C)CO)C(=O)c2cc(NS(C)(=O)=O)ccc2O[C@@H](C)CCCCO[C@H]1CN(C)C(=O)Nc1ccc2c(c1)OCO2 | inconclusive: 0.631 µM [inhibitor, full curve, poor fit] | 
14 | CC1(C)CCN2CCC(C)(C)c3c(O)ccc1c32 | inconclusive: 14.1 µM [inhibitor, partial curve] | 
15 | CC(=O)c1c(N2CCOCC2)nc2ccc(Br)cc2c1-c1ccccc1 | inconclusive: 56.2 µM [inhibitor, partial curve, poor fit] | 
16 | CC(C)[C@H](NC(=O)c1ccccc1F)C(=O)Nc1ccc(F)c(F)c1 | inconclusive: 0.891 µM [inhibitor, full curve, poor fit] | 
17 | CC1CCN(c2ccc(NC(=O)c3ccc([N+](=O)[O-])o3)cc2)CC1 |  | inactive: -14.5%
18 | CCCCCc1ccc(C(=O)CCC(=O)OCC(=O)N(CC)c2c(N)n(Cc3ccccc3)c(=O)[nH]c2=O)cc1 | inconclusive: 7.08 µM [inhibitor, full curve] | 
19 | CSCCC(NC(=O)c1ccccc1Cl)C(=O)N(C)CC(=O)Nc1ccc(N2CCOCC2)cc1 (centres undefined) |  | inactive: -16%
20 | Cc1csc(NC(C)c2nc3cc(C(F)(F)F)ccc3n2CCOCCO)n1 (centres undefined) | inconclusive: 17.8 µM [inhibitor, partial curve, poor fit] | 
21 | O=C(Cc1c(F)cccc1Cl)NCCCn1ccnc1 | inconclusive: 0.794 µM [inhibitor, full curve, poor fit] | 
22 | COC(=O)N1C(=O)[C@](c2ccccc2)(C2CCCCC2)N1C(=O)OC | inconclusive: 0.282 µM [inhibitor, full curve, poor fit] | 

Row | SMILES | Potency | activity change, negative = inhibition
23 | c1ccc(-c2ccccc2OCCCCN2CCCCCC2)cc1 |  | inactive: -17.4%
24 | O=C(N/N=C/c1cc(Br)c(Br)o1)c1cccnc1 | inconclusive: 31.6 µM [inhibitor, partial curve] | 
25 | O=C(Nc1nccs1)c1ccc(Cl)c(S(=O)(=O)N2CCCCC2)c1 |  | inactive: -2.49%
26 | COc1ccc(C)cc1NC(=O)c1ccc2c(c1)CCN2S(=O)(=O)c1ccc(Cl)cc1 | inconclusive: 0.199 µM [inhibitor, full curve, poor fit] | 
27 | C#CCOCCOCCOCCNc1nc(N2CCN(C(=O)Cn3cc(CCO)nn3)CC2)nc(N2CCN(C(=O)[C@H](CCCCN)n3cc(CCCC)nn3)CC2)n1 | inconclusive: 44.7 µM [inhibitor, partial curve] | 
28 | Cc1cccc(-c2noc(-c3ccc(N4CCN(C)CC4)c([N+](=O)[O-])c3)n2)c1 | inconclusive: 56.2 µM [inhibitor, partial curve, poor fit] | 
29 | COc1ccccc1OCCCOc1cccc(/C=C2\SC(=O)NC2=O)c1 | inconclusive: 70.8 µM [inhibitor, partial curve, poor fit] | 
30 | Cc1ccc(-c2nn3c(C)nnc3s2)cc1NC(=O)c1ccc(-c2ccc(Cl)cc2Cl)o1 | inconclusive: 12.6 µM [inhibitor, partial curve] | 
31 | Cc1cc(C)cc(NC(=O)C2CCCN2S(=O)(=O)c2cccc3nsnc23)c1 (centres undefined) | inconclusive: 50.1 µM [inhibitor, partial curve, poor fit] | 
32 | Cc1ccc(C2=CC(c3c(F)cccc3Cl)n3ncnc3N2)cc1C (centres undefined) | inconclusive: 0.708 µM [inhibitor, full curve, poor fit] | 
33 | COc1cc2c(cc1OC)C(COc1cc(C)cc(C)c1)N(C(=O)COc1ccccc1)CC2 (centres undefined) | inconclusive: 12.6 µM [inhibitor, partial curve] | 
34 | C/C(=N\Nc1nc2ccccc2[nH]1)c1cc2ccccc2o1 | inconclusive: 6.31 µM [inhibitor, partial curve] | 
35 | CCn1c(=N)c(C(=O)NC2CCCCC2)cc2c(=O)n3cc(C)ccc3nc21 | inconclusive: 39.8 µM [inhibitor, partial curve, poor fit] | 
36 | COc1ccc(NC(=O)CSc2nc3nc(C)c(Cc4ccccc4Cl)c(C)n3n2)cc1OC |  | inactive: -16.3%
37 | COc1ccc(N/C=C/c2nc(SC)nnc2C)cc1 | inconclusive: 50.1 µM [inhibitor, partial curve, poor fit] | 
38 | O=C(O[C@@H](C(=O)O)[C@@H](OC(=O)c1ccccc1)C(=O)O)c1ccccc1 | inconclusive: 7.08 µM [inhibitor, partial curve] | 
39 | Cc1ccccc1NC(=O)CN1C(=O)S/C(=C\c2ccc(-c3cc(C(=O)O)ccc3C)o2)C1=O | inconclusive: 35.5 µM [inhibitor, partial curve, poor fit] | 
40 | CCOC(=O)Cn1c(-c2cccnc2)nc(-c2ccccc2)c1-c1ccccc1 | inconclusive: 2.82 µM [inhibitor, full curve, poor fit] | 
41 | CCN(CC)c1ccc(NC(=O)c2sc3nc4c(cc3c2N)CN(C)CC4)cc1 |  | inactive: -5.31%
42 | O=C1c2cccc3cc([N+](=O)[O-])cc(c23)C(=O)N1/N=C/c1ccc(O)cc1O |  | inactive: -14.1%
43 | O=C(NC(=S)Nc1ccc(Cc2ccncc2)cc1)c1ccc(F)cc1 | inconclusive: 25.1 µM [inhibitor, partial curve] | 
44 | CS/C(Nc1cc(Cl)ccc1Cl)=C(/C#N)C(=O)c1ccco1 | inconclusive: 31.6 µM [inhibitor, partial curve] | 

A second format for 18 compounds above.

| Row | SMILES | Potency | activity change, negative = inhibition |
| --- | --- | --- | --- |
| 8 | CCOC(=O)c1c(NC(=O)c2cc(C)on2)sc(C)c1C |  | inactive: 13% |
| 9 | Cc1ccccc1N1CC(C(=O)N2CC(C)CC(C)C2)CC1=O (centres undefined) | inconclusive: 10 µM [inhibitor, partial curve] |  |
| 11 | CC(=O)c1cccc(NC(=O)c2ccc(-n3c(C)nnc3C)cc2)c1 | inconclusive: 0.631 µM [inhibitor, full curve, poor fit] |  |
| 16 | CC(C)[C@H](NC(=O)c1ccccc1F)C(=O)Nc1ccc(F)c(F)c1 | inconclusive: 0.891 µM [inhibitor, full curve, poor fit] |  |
| 19 | CSCCC(NC(=O)c1ccccc1Cl)C(=O)N(C)CC(=O)Nc1ccc(N2CCOCC2)cc1 (centres undefined) |  | inactive: -16% |
| 21 | O=C(Cc1c(F)cccc1Cl)NCCCn1ccnc1 | inconclusive: 0.794 µM [inhibitor, full curve, poor fit] |  |
| 24 | O=C(N/N=C/c1cc(Br)c(Br)o1)c1cccnc1 | inconclusive: 31.6 µM [inhibitor, partial curve] |  |
| 27 | C#CCOCCOCCOCCNc1nc(N2CCN(C(=O)Cn3cc(CCO)nn3)CC2)nc(N2CCN(C(=O)[C@H](CCCCN)n3cc(CCCC)nn3)CC2)n1 | inconclusive: 44.7 µM [inhibitor, partial curve] |  |
| 29 | COc1ccccc1OCCCOc1cccc(/C=C2\SC(=O)NC2=O)c1 | inconclusive: 70.8 µM [inhibitor, partial curve, poor fit] |  |
| 30 | Cc1ccc(-c2nn3c(C)nnc3s2)cc1NC(=O)c1ccc(-c2ccc(Cl)cc2Cl)o1 | inconclusive: 12.6 µM [inhibitor, partial curve] |  |
| 31 | Cc1cc(C)cc(NC(=O)C2CCCN2S(=O)(=O)c2cccc3nsnc23)c1 (centres undefined) | inconclusive: 50.1 µM [inhibitor, partial curve, poor fit] |  |
| 33 | COc1cc2c(cc1OC)C(COc1cc(C)cc(C)c1)N(C(=O)COc1ccccc1)CC2 (centres undefined) | inconclusive: 12.6 µM [inhibitor, partial curve] |  |
| 34 | C/C(=N\Nc1nc2ccccc2[nH]1)c1cc2ccccc2o1 | inconclusive: 6.31 µM [inhibitor, partial curve] |  |
| 35 | CCn1c(=N)c(C(=O)NC2CCCCC2)cc2c(=O)n3cc(C)ccc3nc21 | inconclusive: 39.8 µM [inhibitor, partial curve, poor fit] |  |
| 36 | COc1ccc(NC(=O)CSc2nc3nc(C)c(Cc4ccccc4Cl)c(C)n3n2)cc1OC |  | inactive: -16.3% |
| 37 | COc1ccc(N/C=C/c2nc(SC)nnc2C)cc1 | inconclusive: 50.1 µM [inhibitor, partial curve, poor fit] |  |
| 39 | Cc1ccccc1NC(=O)CN1C(=O)S/C(=C\c2ccc(-c3cc(C(=O)O)ccc3C)o2)C1=O | inconclusive: 35.5 µM [inhibitor, partial curve, poor fit] |  |
| 44 | CS/C(Nc1cc(Cl)ccc1Cl)=C(/C#N)C(=O)c1ccco1 | inconclusive: 31.6 µM [inhibitor, partial curve] |  |

Going on with the list:

Row | SMILES | Potency | activity change, negative = inhibition
45 | COc1ccc(N2Cc3cccc(C(=O)Nc4ccc(F)cc4)c3C2=O)cc1 | inconclusive: 0.562 µM [inhibitor, full curve, poor fit] | 
46 | CCc1nn(CC(=O)N2CCN(C)CC2)c(=O)c2cccn12 |  | inactive: -16.8%
47 | Oc1ccc(NC(=S)N=Nc2c(O)[nH]c3ccccc23)cc1 |  | inactive: -7.55%
48 | Cc1cn([C@H]2C[C@H](O)[C@@H](CNCc3ccc(CN(C)S(C)(=O)=O)o3)O2)c(=O)[nH]c1=O | inconclusive: 0.282 µM [inhibitor, full curve] | 
49 | CCOc1ccc(NC(=O)c2oc3ccccc3c2NC(=O)c2c(F)cccc2F)cc1 | inconclusive: 39.8 µM [inhibitor, partial curve, poor fit] | 
50 | O=C(O)c1c(-c2ccc(Cl)cc2)cn2ccccc12 | inconclusive: 5.62 µM [inhibitor, partial curve] | 
51 | COc1ccc(CCNC(=O)C(=O)NCC(c2ccc3c(c2)OCO3)N2CCOCC2)cc1OC (centres undefined) | inconclusive: 56.2 µM [inhibitor, partial curve, poor fit] | 
52 | COc1ccc(-c2nsc(SCC(=O)Nc3ccc4c(c3)OCO4)n2)cc1 |  | inactive: -5.88%
53 | S=C(CSc1ccccc1)Nc1cccc2ccccc12 |  | inactive: -4.31%
54 | Cc1ccc(S(=O)(=O)CCC(=O)c2cccc([N+](=O)[O-])c2)cc1 |  | inactive: -16.3%
55 | CCCCCCSc1ccc([C@H]2N[C@@](C)(C(=O)OC)[C@H]3C(=O)N(C)C(=O)[C@@H]23)cc1 | inconclusive: 35.5 µM [inhibitor, partial curve, poor fit] | 
56 | COc1ccccc1CC(Cc1nc2ccccc2[nH]1)c1nc2ccccc2[nH]1 (centres undefined) |  | inactive: -20.8%
57 | CS/C(N)=N/N=C/c1cc(Br)cc(Br)c1O |  | inactive: -9.44%
58 | CCOC(=O)c1ccc(NC(=O)CSc2nc(=O)n3cccc(C)c3n2)cc1 | inconclusive: 39.8 µM [inhibitor, partial curve, poor fit] | 
59 | CCN(c1cccc(C)c1)S(=O)(=O)c1nnc(NC(=O)c2ccccc2Cl)s1 |  | inactive: -10.8%
60 | O=c1oc2ccccc2c(O)c1/C=C1\C=Nc2ccccc21 |  | inactive: -6.34%
61 | CC1=C(C(=O)N(C)C)CC(CC(=O)NCCc2ccccn2)C(=O)N1Cc1ccccc1 (centres undefined) | inconclusive: 0.224 µM [inhibitor, full curve, poor fit] | 
62 | O=c1[nH]snc1N1CCOCC1 | inconclusive: 31.6 µM [inhibitor, partial curve] | 
63 | Cn1c(/C=N/n2cnnc2)nc2ccccc21 | inconclusive: 0.251 µM [inhibitor, full curve, poor fit] | 
64 | CCOc1ccc(NC(=O)c2cc(=O)c3ccc(C)c(C)c3o2)cc1 | inconclusive: 17.8 µM [inhibitor, partial curve, poor fit] | 
